# From the supplement of paper PMC3334620
# Whole data set: some 33,000 sequences, median “E-score (-0.5 to 0.5)” near -0.0014, cut for the highest 2% near 0.25. The list shows a part of the results.
# Molecular target: T1, Cad1 (UniProt P24813)
# T1 sequence: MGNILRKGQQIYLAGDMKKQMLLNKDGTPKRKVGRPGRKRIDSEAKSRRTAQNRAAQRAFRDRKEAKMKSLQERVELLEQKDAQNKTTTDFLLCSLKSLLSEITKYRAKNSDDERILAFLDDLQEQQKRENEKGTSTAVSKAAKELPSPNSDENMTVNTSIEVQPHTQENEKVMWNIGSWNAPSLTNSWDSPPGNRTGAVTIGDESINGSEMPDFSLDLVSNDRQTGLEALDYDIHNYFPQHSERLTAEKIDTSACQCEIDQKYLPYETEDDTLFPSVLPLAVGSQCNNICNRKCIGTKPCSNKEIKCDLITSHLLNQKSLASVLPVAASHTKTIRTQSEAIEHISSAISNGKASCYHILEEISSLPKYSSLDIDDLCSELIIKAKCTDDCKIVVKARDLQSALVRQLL
# Experiment: PBM E-score (8-mer binding enrichment) (E-score (-0.5 to 0.5)); higher = stronger / more preferred TF binding
# Conditions: protein concentration: 100 nM; construct: GST-full length
# Outline: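 PURExpress in vitro transcription/translation supplied GST-tagged yeast transcription factors, either full-length or DNA-binding domain. Applied at about 100-200 nM to universal all-10-mer Agilent arrays double-stranded by primer extension, the bound protein was detected with fluorescent anti-GST. E-scores, modified Wilcoxon-Mann-Whitney statistics, were given by the Universal PBM Analysis Suite to ungapped eight-base words pooled with their reverse complements after masliner normalisation.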
row,Sequence,PBM E-score
1,AGGACAAC,-0.0394
2,GCGACCTA,0.00515
3,ATAAAAGG,-0.231
4,GAAATTTA,0.192
5,AGTCCAAG,-0.0288
6,TCTATTAA,0.0815
7,GGAAAGAC,-0.184
8,TCATCCGA,0.134
9,CCTCCAAC,-0.119
10,ACGATATA,0.0816
11,CACAGAAG,0.0443
12,ACATGCTC,-0.0876
13,ATATAAGC,0.192
14,TAATGGGA,-0.203
15,TAGCAGCA,-0.00113
16,CCGACGCG,0.0401
17,CCGTGCCA,-0.13
18,CACGAAAC,0.0654
19,GGCAAAAC,-0.0978
20,ACACTACG,0.0225
21,CAATTGTC,0.146
22,AGTGTCGA,-0.0678
23,GACTTATA,0.214
24,GCATTGTA,-0.178
25,ATCTCGGA,0.204

row,Sequence,PBM E-score
1,AAATGCGA,0.0875
2,ACAGGAAC,-0.0285
3,CGGGCTTC,-0.0964
4,GGCGACGA,-0.071
5,TTCATAAA,0.0746
6,CCGCCTCG,-0.0661
7,AGGTTGTA,-0.0369
8,ACCCACGG,-0.212
9,ACGTGGCA,-0.178
10,CTATAGGA,-0.0308
11,TCTGTTCA,0.103
12,ATCCTCCA,-0.128
13,GCTGTGAC,-0.0618
14,ACGACTAC,-0.0918
15,ACTATGAG,-0.0731
16,CGATTGAG,-0.0329
17,GAATTATA,0.19
18,CTACTACA,0.196
19,CAACAGTG,0.0579
20,ACACCCCA,-0.0789
21,GGAAGAAC,-0.00741
22,AATGTCGA,0.199
23,ACCACGGC,-0.0698
24,CGTTCGAG,0.0406
25,CGACGACA,-0.109

row,Sequence,PBM E-score
1,AGGAGTCA,0.0303
2,CCTGGTGA,-0.0273
3,AAGTGACT,-0.0619
4,AACCCGAC,0.122
5,CAATCTCC,0.0166
6,CGGGCGGC,-0.138
7,GCCAGAGC,-0.132
8,GGCGCAAA,0.143
9,AGCCCAAA,0.0873
10,CCCGCCAA,-0.0379
11,ATGTTTCC,-0.00726
12,CGAAGCGA,0.0918
13,AAACTCAA,0.163
14,CGTGGGTC,-0.0915
15,AGAGGGAC,-0.293
16,ACAGCAGT,0.00346
17,ACCAAAGG,-0.0188
18,CGTTTTAA,0.11
19,GCGCGGAC,0.224
20,GTAATTTA,0.267
21,CCCTGGTC,-0.354
22,CCCAATGC,-0.264
23,ACCTGAAT,0.163
24,CGGATGGC,-0.0867
25,ACATTTTA,0.156

row,Sequence,PBM E-score
1,GCGTTCGA,0.113
2,CTAGATTC,-0.174
3,CTAACTCA,-0.0503
4,ATCGAACA,0.161
5,AACGGTTG,0.0328
6,ATTCGGGC,0.0103
7,CTACTCAC,0.0498
8,ACTCCACA,-0.186
9,AAAGTGAA,0.0425
10,AGACGGAA,0.0522
11,ACGAATTA,0.0763
12,TCCCTAAA,0.0334
13,GAGTATAA,0.139
14,CCATCGGG,-0.0691
15,AGGTGCAG,-0.141
16,AGTTGTGC,-0.0792
17,CCGATTCC,0.00025
18,GGCTGGTA,-0.18
19,AGAGCCCA,-0.0735
20,GAATTCTC,0.14
21,GATCCACC,-0.206
22,AACGTGGT,-0.0017
23,ATACTGGC,-0.16
24,GAAAGCCC,-0.0386
25,GCTCATAC,0.0201

# Part of the list above, bar-delimited:
row | Sequence | PBM E-score
22 | AATGTCGA | 0.199
23 | ACCACGGC | -0.0698
24 | CGTTCGAG | 0.0406
25 | CGACGACA | -0.109
1 | AGGAGTCA | 0.0303
2 | CCTGGTGA | -0.0273
3 | AAGTGACT | -0.0619
4 | AACCCGAC | 0.122
5 | CAATCTCC | 0.0166
6 | CGGGCGGC | -0.138
7 | GCCAGAGC | -0.132
8 | GGCGCAAA | 0.143
10 | CCCGCCAA | -0.0379
11 | ATGTTTCC | -0.00726
12 | CGAAGCGA | 0.0918
13 | AAACTCAA | 0.163
14 | CGTGGGTC | -0.0915
15 | AGAGGGAC | -0.293
16 | ACAGCAGT | 0.00346
17 | ACCAAAGG | -0.0188
18 | CGTTTTAA | 0.11
19 | GCGCGGAC | 0.224
20 | GTAATTTA | 0.267
21 | CCCTGGTC | -0.354
22 | CCCAATGC | -0.264
23 | ACCTGAAT | 0.163
24 | CGGATGGC | -0.0867
25 | ACATTTTA | 0.156
1 | GCGTTCGA | 0.113
4 | ATCGAACA | 0.161
5 | AACGGTTG | 0.0328
6 | ATTCGGGC | 0.0103
7 | CTACTCAC | 0.0498
8 | ACTCCACA | -0.186
9 | AAAGTGAA | 0.0425
10 | AGACGGAA | 0.0522
11 | ACGAATTA | 0.0763
12 | TCCCTAAA | 0.0334
13 | GAGTATAA | 0.139
14 | CCATCGGG | -0.0691
15 | AGGTGCAG | -0.141
16 | AGTTGTGC | -0.0792
17 | CCGATTCC | 0.00025
18 | GGCTGGTA | -0.18
19 | AGAGCCCA | -0.0735
20 | GAATTCTC | 0.14
21 | GATCCACC | -0.206
22 | AACGTGGT | -0.0017
23 | ATACTGGC | -0.16
24 | GAAAGCCC | -0.0386
25 | GCTCATAC | 0.0201

# (next part)

row,Sequence,PBM E-score
1,ATGAAGAA,-0.0437
2,CCAGTATA,-0.0609
3,CCTTAAAA,-0.0741
4,ATCCATAG,0.0116
5,AGTCTATG,-0.134
6,ATCAAGCA,0.0448
7,TATGACGA,0.0525
8,CTGCGGTC,-0.0674
9,AGGACGCG,-0.00704
10,CACGACCG,-0.207
11,AGCTCGCG,0.262
12,ACGCCGAG,-0.173
13,GAGTCGGA,-0.15
14,GGTGCAAC,-0.0495
15,ACAAGTTA,0.0637
16,ACGTCTGC,0.031
17,AAAAGACG,-0.00093
18,ATTATCTC,0.153
19,CAGTAGAG,-0.159
20,CTGGCAAG,-0.138
21,AGCTTATG,0.0534
22,ATTGTTAC,0.247
23,CGGTTCGA,0.146
24,AGAGCCGG,-0.167
25,TAAGGAAA,0.0987

row,Sequence,PBM E-score
1,GCAGGAAA,-0.0367
2,TGATGAAA,-0.043
3,GTGCGAGA,-0.0227
4,CGGTCGAG,-0.215
5,CTCTCTCC,-0.276
6,CCGGTAGC,-0.164
7,CTCAGTTA,0.0821
8,CGAAGAAC,0.072
9,AATTAGTA,0.316
10,AGTCTCTA,-0.174
11,ATTGCACG,0.148
12,CTCCCTGC,-0.163
13,ACACCTCG,-0.136
14,GAGGACGA,0.0928
15,ATGCGGTG,-0.0963
16,CCTTGAAA,0.00948
17,GAACCATA,0.0124
18,AAGGCACT,-0.14
19,TGAGACAA,0.0356
20,TGAGTACA,0.0882
21,ATAAGCAA,0.296
22,CCATTGCG,-0.0669
23,CCCTATGA,-0.102
24,CTCATTAA,0.115
25,TCATTGGA,0.12

row,Sequence,PBM E-score
1,ATGAAACA,-0.0141
2,AGCAGCAC,-0.0396
3,TACAACTA,0.0174
4,GACCAGCC,-0.093
5,AGGGGTCG,-0.116
6,CTGCTGAA,0.0549
7,CTGTCGTC,0.0985
8,AGTGTCAC,0.0965
9,AACACTAT,0.174
10,GGATGACC,-0.194
11,AGAGTAAG,-0.0328
12,CCGTGCAA,-0.0239
13,ACTCAATA,0.116
14,GAATCGAA,0.106
15,CATGTACG,0.0283
16,CAGTCAGC,-0.0508
17,CTTCAAAA,-0.0254
18,AAAATGGA,0.267
19,ATAGTATA,0.00052
20,AATAGGAC,0.0966
21,AATCGTAC,-0.0133
22,GCTTTATA,-0.0237
